Reference: publication PMC9707766
These are yes or no findings as the source states them, for the method shown. Binding seen in cells or lysates may run through a third protein. Some binding calls cover weakened binding; strength is not graded here.

By UniProt entry, the sequences of proteins in these tests, tags left out.
UniProt Q15388: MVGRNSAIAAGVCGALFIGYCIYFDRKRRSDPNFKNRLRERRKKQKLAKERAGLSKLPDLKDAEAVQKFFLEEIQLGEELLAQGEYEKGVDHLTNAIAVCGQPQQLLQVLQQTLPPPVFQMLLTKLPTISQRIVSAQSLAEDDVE

Target: T1, ATP13A2-Halo (human) (UniProt Q9NQ11)
T1 sequence: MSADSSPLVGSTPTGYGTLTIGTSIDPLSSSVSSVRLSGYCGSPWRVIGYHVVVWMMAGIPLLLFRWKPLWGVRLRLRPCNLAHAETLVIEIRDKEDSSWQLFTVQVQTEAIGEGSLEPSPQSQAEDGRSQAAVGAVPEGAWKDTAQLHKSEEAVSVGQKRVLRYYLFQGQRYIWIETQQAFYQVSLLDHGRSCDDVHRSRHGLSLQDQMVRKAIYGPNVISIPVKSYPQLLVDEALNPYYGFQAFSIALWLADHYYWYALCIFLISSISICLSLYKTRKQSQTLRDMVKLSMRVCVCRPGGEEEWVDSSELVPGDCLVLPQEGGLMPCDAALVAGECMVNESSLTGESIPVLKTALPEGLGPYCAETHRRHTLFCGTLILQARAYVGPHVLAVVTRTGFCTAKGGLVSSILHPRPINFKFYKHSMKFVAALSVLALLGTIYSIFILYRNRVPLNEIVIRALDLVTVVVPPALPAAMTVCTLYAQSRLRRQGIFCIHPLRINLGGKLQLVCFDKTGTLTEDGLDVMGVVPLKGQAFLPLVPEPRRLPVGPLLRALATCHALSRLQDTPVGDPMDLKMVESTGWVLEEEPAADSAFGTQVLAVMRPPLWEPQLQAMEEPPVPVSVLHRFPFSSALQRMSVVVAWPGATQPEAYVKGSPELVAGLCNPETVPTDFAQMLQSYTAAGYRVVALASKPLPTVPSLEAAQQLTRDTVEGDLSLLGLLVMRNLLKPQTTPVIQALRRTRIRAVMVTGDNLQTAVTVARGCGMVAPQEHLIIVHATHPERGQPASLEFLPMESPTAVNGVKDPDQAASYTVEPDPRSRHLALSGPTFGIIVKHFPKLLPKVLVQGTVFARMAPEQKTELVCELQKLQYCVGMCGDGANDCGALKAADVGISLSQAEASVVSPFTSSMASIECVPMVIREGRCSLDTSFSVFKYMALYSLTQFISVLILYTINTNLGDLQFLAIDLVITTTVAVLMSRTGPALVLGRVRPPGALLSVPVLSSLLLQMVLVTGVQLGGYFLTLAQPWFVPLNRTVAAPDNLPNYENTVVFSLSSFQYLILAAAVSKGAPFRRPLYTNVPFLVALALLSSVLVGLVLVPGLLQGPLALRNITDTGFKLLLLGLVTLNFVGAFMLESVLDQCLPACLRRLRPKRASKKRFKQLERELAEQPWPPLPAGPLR
Assay: co-IP; lysate of HeLa cells stably expressing ATP13A2-Halo and transfected with mCherry-TOM20-N-10; 20 mM HEPES pH 7.5, 0.15 M NaCl, 0.5% Triton X-100; anti-ATP13A2 antibody or normal IgG overnight at 4°C, Dynabeads Protein G, five washes with 0.1% Triton X-100; western blotting

In the case of “mCherry-TOM20-N (from UniProt Q15388 1-145)”, the binding is reported as “binds”.
